Measurements reported in article PMC11009390.
Like-named read-outs stand apart in the source and are kept apart here. No constants are given. Whether binding was seen depends on the method and setting. In cells and extracts the contact can be indirect. Some results given as binding are weak or reduced against the parent protein; the word gives no strength.

Sequences of proteins named here, by UniProt entry; tags and fusion partners are left off.
UniProt P01100: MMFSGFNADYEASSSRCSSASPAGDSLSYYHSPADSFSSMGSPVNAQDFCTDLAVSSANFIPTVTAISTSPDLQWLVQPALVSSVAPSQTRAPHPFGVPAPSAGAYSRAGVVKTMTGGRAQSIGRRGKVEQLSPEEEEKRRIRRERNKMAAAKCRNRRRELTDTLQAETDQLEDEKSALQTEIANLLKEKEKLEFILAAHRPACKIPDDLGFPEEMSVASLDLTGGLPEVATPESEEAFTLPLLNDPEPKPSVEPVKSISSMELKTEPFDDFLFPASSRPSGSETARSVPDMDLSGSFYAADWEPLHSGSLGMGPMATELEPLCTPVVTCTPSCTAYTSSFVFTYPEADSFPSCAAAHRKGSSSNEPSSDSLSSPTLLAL

Columns and labels:
[1] = biological target: p41Plk3, Dox-inducible, in HPNE cells (human) (UniProt Q9H4B4); assay: proximity ligation; Duolink In Situ Red kit on fixed, permeabilised HPNE-Tet-p41Plk3 cells; rabbit anti-Plk3 and mouse anti-c-Fos antibodies, 4 °C overnight; dots per cell
[2] = biological target: Flag-Plk3NT^1-353 (p41Plk3) (human) (UniProt Q9H4B4); assay: co-IP; 1 mg protein extract of cells (PANC-1) transfected with the Flag-tagged Plk3 construct, anti-Flag (M2) magnetic beads, 4 °C overnight; partner detected by Western blot
[3] = biological target: Flag-Plk3NT^1-353 (p41Plk3) (human) (UniProt Q9H4B4); assay: as above; remark: listed apart in the source

Row | Molecule | binding [3] | further results
1 | c-Fos (in HPNE cells) (from UniProt P01100 1-380) | – | binding [1]: binds
2 | c-Fos (in PANC-1 cells) (from UniProt P01100 1-380) | – | binding [2]: binds
3 | Plk3CT^354-646 (domain or fragment, UniProt Q9H4B4 354-646) RKKKSKNHAQERDEVSGLVSGLMRTSVGHQDARPEAPAASGPAPVSLVETAPEDSSPRGTLASSGDGFEEGLTVATVVESALCALRNCIAFMPPAEQNPAPLAQPEPLVWVSKWVDYSNKFGFGYQLSSRRVAVLFNDGTHMALSANRKTVHYNPTSTKHFSFSVGAVPRALQPQLGILRYFASYMEQHLMKGGDLPSVEEVEVPAPPLLLQWVKTDQALLMLFSDGTVQVNFYGDHTKLILSGWEPLLVTFVARNRSACTYLASHLRQLGCSPDLRQRLRYALRLLRDRSPA | binds | –
4 | Plk3CT^354-646 P454R (domain or fragment, UniProt Q9H4B4 354-646) RKKKSKNHAQERDEVSGLVSGLMRTSVGHQDARPEAPAASGPAPVSLVETAPEDSSPRGTLASSGDGFEEGLTVATVVESALCALRNCIAFMPPAEQNPARLAQPEPLVWVSKWVDYSNKFGFGYQLSSRRVAVLFNDGTHMALSANRKTVHYNPTSTKHFSFSVGAVPRALQPQLGILRYFASYMEQHLMKGGDLPSVEEVEVPAPPLLLQWVKTDQALLMLFSDGTVQVNFYGDHTKLILSGWEPLLVTFVARNRSACTYLASHLRQLGCSPDLRQRLRYALRLLRDRSPA | binds | –
5 | Plk3CT^354-646 K473A (domain or fragment, UniProt Q9H4B4 354-646) RKKKSKNHAQERDEVSGLVSGLMRTSVGHQDARPEAPAASGPAPVSLVETAPEDSSPRGTLASSGDGFEEGLTVATVVESALCALRNCIAFMPPAEQNPAPLAQPEPLVWVSKWVDYSNAFGFGYQLSSRRVAVLFNDGTHMALSANRKTVHYNPTSTKHFSFSVGAVPRALQPQLGILRYFASYMEQHLMKGGDLPSVEEVEVPAPPLLLQWVKTDQALLMLFSDGTVQVNFYGDHTKLILSGWEPLLVTFVARNRSACTYLASHLRQLGCSPDLRQRLRYALRLLRDRSPA | binds | –
